In paper PMC8726646 one finds binding data, which are given here for one substance.

Protein sequences, listed by entry. Tags and fused reporters are not part of them.
UniProt P37231: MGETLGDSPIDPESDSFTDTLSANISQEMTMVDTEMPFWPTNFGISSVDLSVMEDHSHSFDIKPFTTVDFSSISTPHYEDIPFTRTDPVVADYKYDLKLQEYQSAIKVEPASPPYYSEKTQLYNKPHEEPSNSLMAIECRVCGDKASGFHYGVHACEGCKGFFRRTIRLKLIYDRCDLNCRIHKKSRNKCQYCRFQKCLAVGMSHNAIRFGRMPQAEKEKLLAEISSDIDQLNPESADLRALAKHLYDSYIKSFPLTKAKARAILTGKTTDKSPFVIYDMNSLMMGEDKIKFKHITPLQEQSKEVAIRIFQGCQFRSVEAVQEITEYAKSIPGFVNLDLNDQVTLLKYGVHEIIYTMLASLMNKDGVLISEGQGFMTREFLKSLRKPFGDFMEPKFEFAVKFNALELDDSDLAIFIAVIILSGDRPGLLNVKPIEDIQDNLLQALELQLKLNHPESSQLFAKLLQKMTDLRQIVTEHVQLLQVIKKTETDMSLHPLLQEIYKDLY
UniProt Q15208: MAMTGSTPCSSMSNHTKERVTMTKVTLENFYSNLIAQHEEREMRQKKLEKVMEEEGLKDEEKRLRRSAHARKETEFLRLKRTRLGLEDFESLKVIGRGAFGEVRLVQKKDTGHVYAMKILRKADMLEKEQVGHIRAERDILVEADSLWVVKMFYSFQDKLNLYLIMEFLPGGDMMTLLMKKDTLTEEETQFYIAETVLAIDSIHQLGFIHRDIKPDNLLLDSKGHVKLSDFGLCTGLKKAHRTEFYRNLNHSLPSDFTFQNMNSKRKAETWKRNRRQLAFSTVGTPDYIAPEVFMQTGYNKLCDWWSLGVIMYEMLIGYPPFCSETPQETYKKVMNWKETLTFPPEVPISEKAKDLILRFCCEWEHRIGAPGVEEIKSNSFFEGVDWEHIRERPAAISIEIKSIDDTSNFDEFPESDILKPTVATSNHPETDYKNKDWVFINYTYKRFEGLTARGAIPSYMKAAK

For the experiment, the target named is Flag-PPARγ, transfected in HEK293 cells (UniProt P37231). Kind of experiment: co-IP; HEK293 cells (methods: HEK-293 T) co-transfected with Flag- and Myc-tagged proteins, lysed in RIPA buffer 48 h after transfection; anti-Flag beads overnight at 4°C; Western blot with anti-Flag or anti-Myc antibody. (In western blotting, separated proteins are transferred to a membrane and probed.)

Results are given in words; binding and its absence hold for the method and conditions named. In cells and extracts the contact can be indirect. Some results given as binding are weak or reduced against the parent protein; the word gives no strength.

Regarding “Myc-STK38, transfected in HEK293 cells (from UniProt Q15208 1-465) (enzyme)”, the binding entry is on record as “binds”.
